Drawing on PubChem BioAssay AID662 (National Center for Advancing Translational Sciences (NCATS), 2007), this text covers AC50 for 44 molecules.

The list shows a part of the results. These are further read-outs of the screen, such as a control signal, another cell line or another target. No call is given for them. The list favours compounds with an active or inconclusive main result. Words in brackets tell the shape of the fitted curve; partial curves, single points and poor fits give uncertain potencies.

A short description of the assay: Cell signaling CRE-BLA (Fsk stim). To be noted: CHO CRE-bla reporter (cAMP response element driving beta-lactamase), forskolin EC10, beta-lactamase ratio; measured here: 460 nm blue channel. Put shortly: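 Forskolin analogue NKH 477 at EC10 stimulated CRE-driven beta-lactamase in CHO cells alongside compound dilution series. Beta-lactamase was measured with CCF4, excitation 405 nm, emission ratio 460/530 nm.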
For orientation: AC50 means the midpoint of the concentration-response curve, whichever way the signal moves. In the case of `CCN(CC(=O)NCc1cccs1)c1nnnn1-c1ccccc1`, the AC50 was 15.8 µM [falling, single point].

As to `O=C(Nc1cccc2ccccc12)OC1C=CS(=O)(=O)C1` (centres undefined), the AC50 is 12.6 µM [falling, partial curve]. Then `COc1ccc(S(=O)(=O)NCc2ccco2)cc1-c1nnc2c3ccccc3c(C)nn12`, with 1.58 µM [rising, partial curve].

On to `CCOC(=O)Nc1cc(OC)c(OC)cc1Cc1nccc2cc(OC)c(OC)cc12`, for which the AC50 was 7.94 µM [rising, partial curve]. Turning to `CCNc1ncc2nc(-c3cn(C)c4ccccc34)c(=O)n(Cc3cccc(OC)c3)c2n1`, the AC50 is 15.8 µM [rising, partial curve]. Then `COc1ccc(-c2nc3cnc(Nc4cccc(OC)c4)nc3n(C[C@H]3CCCO3)c2=O)cc1`, with 1.58 µM [rising, full curve]. `CCc1nnc(NC(=O)CSc2nnc(C3CCCCC3)n2-c2ccccc2)s1`: the AC50 is 12.6 µM [rising, partial curve]. Then `Cc1c(NC(=O)c2c(F)c(F)c(F)c(F)c2F)c(=O)n(-c2ccccc2)n1C`, with 5.01 µM [falling, partial curve]; and `Cc1nnc(SC(C)C(=O)Nc2ccc3c(c2)OCCO3)s1` (centres undefined), with 3.16 µM [rising, single point]; and `CNc1ccc(OC(F)F)cc1C(=O)c1ccccc1`, with 10 µM [rising, partial curve].

On to `Cc1cc(C(=O)CSc2nnc(-c3cccc(F)c3)n2N)c(C)n1Cc1ccc2c(c1)OCO2`, for which the AC50 was 15.8 µM [falling, single point]. In the case of `CCCCOc1ccccc1NC(=O)Cn1c(-c2nonc2N)nc2ccccc21`, the AC50 was 1 µM [rising, full curve, poor fit]. Then `O=C(CC1(O)C(=O)Nc2cc(Cl)cc(Cl)c21)c1ccncc1` (centres undefined), with 3.98 µM [falling, partial curve]. Regarding `Cc1nc2ccccc2c2oc(C(=O)N3CCc4ccccc43)cc12`, the AC50 is 0.501 µM [rising, full curve].

Regarding `O=C(c1cnn2c(C(F)(F)F)cc(-c3ccco3)nc12)N1CCc2ccccc2C1`, the AC50 was 12.6 µM [rising, partial curve]. As for `CCn1c(SCC(=O)N2CCCC2)nc2c(c1=O)SC(C)C2` (centres undefined), the AC50 is 10 µM [rising, partial curve]. As for `Cc1ccc2nc(N3CCC(C(=O)O)CC3)nc(-c3ccccc3)c2c1`, the AC50 was 12.6 µM [rising, partial curve].

For `CCOC(=O)NCCc1ccc(OC)cc1`, the AC50 was 0.631 µM [rising, full curve, poor fit]. Then `Cc1oncc1C(=O)Nc1ccc(C(F)(F)F)cc1`, with 20 µM [falling, partial curve]. Then `COc1ccc(-c2nnn(CC(=O)OC3CCCCC3)n2)cc1OC`, with 15.8 µM [rising, single point]. Then `COc1ccc(Nc2cc(C)nc3nc(C)nn23)c(OC)c1`, with 12.6 µM [rising, partial curve]; and `N#Cc1nc(Cc2ccccc2)oc1NCCc1ccccc1`, with 25.1 µM [rising, single point]; and `c1ccc(N2CCN(CCc3nnc4n3CCCCC4)CC2)cc1`, with 3.98 µM [falling, partial curve]. `CCCCOC(=O)Nc1nnc(CCOCC)s1`: the AC50 is 12.6 µM [rising, partial curve]. On to `O=C(CCCCCn1c(=O)[nH]c2ccsc2c1=O)N1CCCCC1`, for which the AC50 is 10 µM [rising, single point]. For `COc1ccc(-n2nc(C(=O)NCC(=O)N3CCN(c4ccccn4)CC3)c3ccccc3c2=O)cc1`, the AC50 was 0.0794 µM [rising, single point].

In the case of `CN=C(Nc1cc(C)nn1CCC#N)c1ccccc1F`, the AC50 is 0.794 µM [falling, single point].

With `COCCn1c(=O)c(-c2cccc(C#N)c2)nc2cnc(OCc3ccccc3)nc21`, the AC50 is 15.8 µM [rising, partial curve]. Then `O=C(COc1ccccc1)Nc1ccccc1N1CCN(c2ccccc2)CC1`, with 2.51 µM [rising, full curve, poor fit]. Then `COc1cccc(-c2nc(-c3ccccn3)no2)c1OC`, with 12.6 µM [rising, single point]. Then `Brc1ccc(C2=Nn3c(nnc3-c3n[nH]c4c3CCC4)SC2)cc1`, with 7.94 µM [rising, partial curve]; and `COc1ccccc1-c1nc(C#N)c(N2CCc3ccccc3C2)o1`, with 2 µM [rising, partial curve]; and `CCN(CC)C(=O)C1CCCc2c1[nH]c1ccc(Cl)cc21` (centres undefined), with 7.94 µM [falling, partial curve].

As for `Nc1nnc(-c2ccncc2)s1`, the AC50 was 2.51 µM [falling, full curve, poor fit]. Take `COc1cc(-c2noc(CCC(=O)Nc3cccnc3)n2)cc(OC)c1OC`: the AC50 was 7.94 µM [rising, partial curve]. Then `COCCn1c(=O)c(CCc2ccccc2)nc2cnc(Oc3ccccc3)nc21`, with 7.94 µM [rising, partial curve]; and `CC(C)C1Nc2ccc(S(N)(=O)=O)cc2C2C=CCC21` (centres undefined), with 12.6 µM [falling, single point]. With `O=C(NCC1CC1)[C@H]1C[C@@H]1[C@H](NP(=O)(c1ccccc1)c1ccccc1)c1ccccc1`, the AC50 was 15.8 µM [rising, single point]. Then `CCc1ccccc1NC(=O)Cn1nnc(-c2cccnc2)n1`, with 3.16 µM [rising, single point]; and `COc1cc(C2C(C#N)=C(N)Oc3n[nH]c(-c4ccncc4)c32)cc(OC)c1OC` (centres undefined), with 12.6 µM [rising, single point]; and `CCOC(=O)c1[nH]c(C)c(C(=O)N2CCc3ccccc32)c1C`, with 10 µM [rising, partial curve]. Then `Clc1ccc2[nH]c3c(c2c1)CCc1cn[nH]c1-3`, with 6.31 µM [falling, partial curve]; and `COc1ccc(CNc2ccnc(-c3ccc(C(=O)N(C)C)cc3)n2)c(OC)c1`, with 6.31 µM [rising, partial curve]; and `Cc1ccc(S(=O)(=O)Nc2cccc(-c3cn4ccsc4n3)c2)cc1`, with 10 µM [rising, partial curve].
